{"sequences": {"note": "By UniProt entry, the sequences of proteins in these tests, tags left out.", "UniProt O00425": "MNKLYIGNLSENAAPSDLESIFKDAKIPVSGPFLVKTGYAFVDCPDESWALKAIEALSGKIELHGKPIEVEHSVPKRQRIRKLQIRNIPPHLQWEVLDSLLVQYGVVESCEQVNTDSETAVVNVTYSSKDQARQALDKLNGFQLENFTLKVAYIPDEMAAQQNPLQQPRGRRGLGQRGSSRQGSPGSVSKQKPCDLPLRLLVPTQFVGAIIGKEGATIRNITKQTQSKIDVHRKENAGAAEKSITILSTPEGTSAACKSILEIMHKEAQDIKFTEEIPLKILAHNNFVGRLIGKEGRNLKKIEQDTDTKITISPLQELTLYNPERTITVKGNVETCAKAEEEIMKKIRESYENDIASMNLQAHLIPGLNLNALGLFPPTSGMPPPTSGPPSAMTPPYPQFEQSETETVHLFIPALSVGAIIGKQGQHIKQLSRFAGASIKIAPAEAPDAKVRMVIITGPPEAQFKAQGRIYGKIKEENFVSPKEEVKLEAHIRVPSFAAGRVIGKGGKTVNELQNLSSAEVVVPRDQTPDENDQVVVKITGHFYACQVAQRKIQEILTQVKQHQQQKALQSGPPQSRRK"}, "source": "paper PMC13431160", "key": {"[1]": {"molecular_target": "T1, eGFP-EDC3 (pT7-EGFP-C1-HsEDC3) (human) (UniProt Q96F86)", "T1 sequence": "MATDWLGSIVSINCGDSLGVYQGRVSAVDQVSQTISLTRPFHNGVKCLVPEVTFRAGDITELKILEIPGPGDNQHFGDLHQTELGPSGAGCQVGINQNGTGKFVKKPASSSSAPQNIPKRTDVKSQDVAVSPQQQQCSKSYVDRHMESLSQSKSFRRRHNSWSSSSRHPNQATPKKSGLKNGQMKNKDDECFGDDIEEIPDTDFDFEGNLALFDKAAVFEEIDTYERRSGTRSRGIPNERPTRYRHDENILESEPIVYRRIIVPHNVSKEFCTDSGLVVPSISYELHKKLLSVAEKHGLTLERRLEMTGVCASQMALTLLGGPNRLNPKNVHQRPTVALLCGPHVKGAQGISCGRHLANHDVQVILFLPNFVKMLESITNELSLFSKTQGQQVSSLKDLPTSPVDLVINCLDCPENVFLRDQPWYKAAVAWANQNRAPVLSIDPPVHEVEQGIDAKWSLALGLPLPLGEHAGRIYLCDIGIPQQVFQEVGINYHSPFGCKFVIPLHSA", "assay": "co-IP; HCT116 IGF2BP3 KO cells (clone A3) co-transfected with eGFP-EDC3 and 3xFLAG-IGF2BP3 WT or 4A; GFP-trap beads, 1 h at 4°C with 2 U/µL RNase I; 25 mM Tris-HCl pH 7.4, 100 mM KCl, 0.5% NP-40; Western blot with anti-GFP and anti-FLAG"}, "[2]": {"molecular_target": "T2, EDC3 tagged with split-mNeonGreen in HEK293T cells (human (endogenous in HEK293T)) (UniProt Q96F86)", "T2 sequence": "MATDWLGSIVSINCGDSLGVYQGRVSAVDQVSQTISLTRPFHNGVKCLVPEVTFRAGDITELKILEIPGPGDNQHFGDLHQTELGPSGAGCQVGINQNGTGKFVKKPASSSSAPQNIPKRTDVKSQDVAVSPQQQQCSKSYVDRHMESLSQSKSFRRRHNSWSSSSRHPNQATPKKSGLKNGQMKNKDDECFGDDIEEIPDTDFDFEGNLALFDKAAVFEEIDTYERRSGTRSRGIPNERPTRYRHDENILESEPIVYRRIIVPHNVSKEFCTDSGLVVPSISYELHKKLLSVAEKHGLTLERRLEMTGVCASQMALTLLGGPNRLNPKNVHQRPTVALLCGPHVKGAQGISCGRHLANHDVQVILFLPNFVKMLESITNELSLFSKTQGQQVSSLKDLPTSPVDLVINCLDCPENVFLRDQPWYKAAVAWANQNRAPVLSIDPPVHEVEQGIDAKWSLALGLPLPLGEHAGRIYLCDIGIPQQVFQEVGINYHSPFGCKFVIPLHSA", "assay": "co-IP; HEK293T split GFP-IGF2BP3 or split mNeonGreen-EDC3 cells, DMSO or TM 5 µg/mL 4 h; GFP-trap or mNeonGreen-trap magnetic beads, 1 h at 4°C with 2 U/µL RNase I; 25 mM Tris-HCl pH 7.4, 100 mM KCl, 0.5% NP-40; Western blot"}, "[3]": {"molecular_target": "split-GFP-tagged IGF2BP3 in HEK293T cells (human (endogenous in HEK293T)) (UniProt O00425)", "assay": "co-IP; HEK293T split GFP-IGF2BP3 or split mNeonGreen-EDC3 cells, DMSO or TM 5 µg/mL 4 h; GFP-trap or mNeonGreen-trap magnetic beads, 1 h at 4°C with 2 U/µL RNase I; 25 mM Tris-HCl pH 7.4, 100 mM KCl, 0.5% NP-40; Western blot"}}, "note": "These are yes or no findings as the source states them, for the method shown. In cells and extracts the contact can be indirect. Some binding calls cover weakened binding; strength is not graded here. For part of these data: Where a sequence is shown, tags or fusion partners need not be part of it."}
{"molecule": "3xFLAG-hsIGF2BP3 WT (from UniProt O00425 1-579)", "values": [{"measurement": "binding", "setting": "[1]", "value": "binds"}]}
{"molecule": "IGF2BP3, endogenous in HEK293T split mNeonGreen-EDC3 cells (from UniProt O00425 1-579)", "values": [{"measurement": "binding", "setting": "[2]", "value": "binds"}]}
{"molecule": "EDC4, endogenous in HEK293T cells (protein, UniProt Q6P2E9 1-1401) MASCASIDIEDATQHLRDILKLDRPAGGPSAESPRPSSAYNGDLNGLLVPDPLCSGDSTSANKTGLRTMPPINLQEKQVICLSGDDSSTCIGILAKEVEIVASSDSSISSKARGSNKVKIQPVAKYDWEQKYYYGNLIAVSNSFLAYAIRAANNGSAMVRVISVSTSERTLLKGFTGSVADLAFAHLNSPQLACLDEAGNLFVWRLALVNGKIQEEILVHIRQPEGTPLNHFRRIIWCPFIPEESEDCCEESSPTVALLHEDRAEVWDLDMLRSSHSTWPVDVSQIKQGFIVVKGHSTCLSEGALSPDGTVLATASHDGYVKFWQIYIEGQDEPRCLHEWKPHDGRPLSCLLFCDNHKKQDPDVPFWRFLITGADQNRELKMWCTVSWTCLQTIRFSPDIFSSVSVPPSLKVCLDLSAEYLILSDVQRKVLYVMELLQNQEEGHACFSSISEFLLTHPVLSFGIQVVSRCRLRHTEVLPAEEENDSLGADGTHGAGAMESAAGVLIKLFCVHTKALQDVQIRFQPQLNPDVVAPLPTHTAHEDFTFGESRPELGSEGLGSAAHGSQPDLRRIVELPAPADFLSLSSETKPKLMTPDAFMTPSASLQQITASPSSSSSGSSSSSSSSSSSLTAVSAMSSTSAVDPSLTRPPEELTLSPKLQLDGSLTMSSSGSLQASPRGLLPGLLPAPADKLTPKGPGQVPTATSALSLELQEVEPLGLPQASPSRTRSPDVISSASTALSQDIPEIASEALSRGFGSSAPEGLEPDSMASAASALHLLSPRPRPGPELGPQLGLDGGPGDGDRHNTPSLLEAALTQEASTPDSQVWPTAPDITRETCSTLAESPRNGLQEKHKSLAFHRPPYHLLQQRDSQDASAEQSDHDDEVASLASASGGFGTKVPAPRLPAKDWKTKGSPRTSPKLKRKSKKDDGDAAMGSRLTEHQVAEPPEDWPALIWQQQRELAELRHSQEELLQRLCTQLEGLQSTVTGHVERALETRHEQEQRRLERALAEGQQRGGQLQEQLTQQLSQALSSAVAGRLERSIRDEIKKTVPPCVSRSLEPMAGQLSNSVATKLTAVEGSMKENISKLLKSKNLTDAIARAAADTLQGPMQAAYREAFQSVVLPAFEKSCQAMFQQINDSFRLGTQEYLQQLESHMKSRKAREQEAREPVLAQLRGLVSTLQSATEQMAATVAGSVRAEVQHQLHVAVGSLQESILAQVQRIVKGEVSVALKEQQAAVTSSIMQAMRSAAGTPVPSAHLDCQAQQAHILQLLQQGHLNQAFQQALTAADLNLVLYVCETVDPAQVFGQPPCPLSQPVLLSLIQQLASDLGTRTDLKLSYLEEAVMHLDHSDPITRDHMGSVMAQVRQKLFQFLQAEPHNSLGKAARRLSLMLHGLVTPSLP", "values": [{"measurement": "binding", "setting": "[3]", "value": "binds"}]}
